# Microarray screen: hit calls

Calls as published in the ROBIN set (doi:10.1002/anie.202211358).

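The test is a small-molecule microarray: each compound is printed twice on a reactive slide, and binding shows as fluorescence of the labelled oligonucleotide after washing. For the PreQ1, TPP and SAM-II riboswitches the laboratory earlier reported (doi:10.1038/s41467-019-09493-3) 1 µM RNA, 2 h, and a rule that included a mean Z-score above 3 (spot signal-to-noise against the whole library), a score well above that on a control array, and duplicate spots agreeing (coefficient of variation under 100). The data file gives only the calls; its cut-offs may differ, and compounds hitting several targets are kept. These are primary screening calls, not affinities; a compound without a hit may have attached poorly or may still bind in solution.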 A compound is marked hit if it was called a hit and no hit if it was screened but was not. Compounds were drawn at random from those tested, without regard to their results. A target missing from an entry has no call listed here. A dash means that no call is listed here.

Oligonucleotides screened, 5′ to 3′:
TPP: TPP riboswitch RNA three-way junction, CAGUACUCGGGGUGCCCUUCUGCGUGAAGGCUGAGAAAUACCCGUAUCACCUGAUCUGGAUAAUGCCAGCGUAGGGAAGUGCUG. About 24,000 compounds screened, about 160 hits.
PreQ1: PreQ1 riboswitch RNA pseudoknot, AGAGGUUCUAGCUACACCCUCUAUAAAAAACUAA. From B. subtilis. About 24,000 compounds screened, about 170 hits.
SAM-II: SAM-II riboswitch RNA pseudoknot, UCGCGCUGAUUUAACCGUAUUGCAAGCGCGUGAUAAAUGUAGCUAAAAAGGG. About 21,000 compounds screened, about 200 hits.

Calls for OCC1COCCN(Cc2c(F)cccc2Cl)C1 (stereo unspecified) are TPP: no hit; PreQ1: no hit; SAM-II: no hit. Calls for Cc1ccc(CN(Cc2ccncc2)C(=O)C2CCNC2)s1 (stereo unspecified) are TPP: no hit; PreQ1: no hit; SAM-II: no hit. Calls for Cn1c(=O)n(C)c2cc(CNCCN3CCOCC3)ccc21 are TPP: no hit; PreQ1: no hit. With CC1CCCC(C)N1CC(O)COc1ccc(N=Cc2ccccc2O)cc1 (stereo unspecified) the screen gave TPP: no hit; PreQ1: no hit; SAM-II: no hit. Cc1nc2sccn2c1C(=O)NCCc1nnc2n1CCNCC2 was scored TPP: no hit; PreQ1: no hit; SAM-II: no hit.

With Cc1noc(C)c1CN(C)C(=O)c1cccc(NCc2cccnc2)c1C the screen gave TPP: no hit; PreQ1: no hit; SAM-II: no hit. For COc1ccc([C@@H]2C[C@H](c3c(F)cccc3Cl)n3nc(N)nc3N2)cc1 the calls were TPP: no hit; PreQ1: no hit; SAM-II: no hit. Calls for NNC(=O)CNC(c1ccccc1)c1cc(Br)ccc1NC(=O)CCN1CCOCC1 (stereo unspecified) are TPP: hit; PreQ1: no hit; SAM-II: hit. With COc1ccc(-c2ccccc2CO)nn1 the screen gave TPP: no hit; PreQ1: no hit; SAM-II: no hit. O=c1nc(CNc2ccc(F)cc2)[nH]n1Cc1cccc(Cl)c1 was scored TPP: no hit; PreQ1: no hit; SAM-II: no hit.

For Cc1cc(CC(C)NCc2cc(O)c3cccc(F)c3n2)[nH]n1 (stereo unspecified) the calls were TPP: no hit; PreQ1: no hit; SAM-II: no hit. O=C(O)CCC1CCC(c2cc(F)ccc2F)(S(=O)(=O)c2ccc(Cl)cc2)CC1 (stereo unspecified) was scored TPP: no hit; PreQ1: no hit; SAM-II: no hit. c1cc(Cn2cccn2)cc(C2NCCc3[nH]cnc32)c1 (stereo unspecified) was scored TPP: no hit; PreQ1: no hit; SAM-II: no hit. For Fc1ccccc1NC(c1ccccc1)c1nnc(-c2ccccc2F)o1 (stereo unspecified) the calls were TPP: no hit; PreQ1: no hit; SAM-II: no hit. O=S(=O)(NC1CCCCC1Nc1ccccc1Br)c1ccccc1 (stereo unspecified) was scored TPP: no hit; PreQ1: no hit.

Calls for C[N+]1(C)[C@@H]2CC(OC(=O)[C@H](CO)c3ccccc3)C[C@H]1[C@@H]1O[C@@H]12.[Br-] (stereo partly specified) are TPP: no hit; PreQ1: no hit; SAM-II: no hit. COc1ccc(CCNCc2ccc(OC)c(OC)c2)cc1OC was scored TPP: no hit; PreQ1: no hit; SAM-II: no hit. COc1ccc(-c2noc(NCCc3ccc(OC)c(OC)c3)n2)cc1 was scored TPP: no hit; PreQ1: no hit. Calls for COCCNc1ncccc1-c1nc(-c2ccc(C)cc2)no1 are TPP: no hit; PreQ1: no hit. For O=C1c2ccccc2C(=O)c2cc(OCC(O)CN3CCOCC3)ccc21 (stereo unspecified) the calls were TPP: no hit; PreQ1: no hit; SAM-II: no hit.

For COCCNc1oc(C=Cc2cccs2)nc1C#N the calls were TPP: no hit; PreQ1: no hit. For Cc1ccc(OCC=CCN2CCNCC2)cc1 the calls were TPP: no hit; PreQ1: no hit; SAM-II: no hit. With Nc1ccc2c(c1)N=[N+]([O-])c1cc(N)ccc1C2 the screen gave TPP: no hit; PreQ1: no hit; SAM-II: hit. For COc1ccc(C(=O)c2sc3nc(-c4ccncc4)ccc3c2N)cc1OC the calls were TPP: no hit; PreQ1: no hit; SAM-II: no hit. For Cc1ccc(Nc2cc(C)nc3nc(-c4ccccc4)nn23)c(C)c1 the calls were TPP: no hit; PreQ1: no hit; SAM-II: no hit.

For COc1cc(C(C)=O)ccc1OCC(O)Cn1cncn1 (stereo unspecified) the calls were TPP: no hit; PreQ1: no hit; SAM-II: no hit. With COC(=O)c1nnn(CC(=O)Nc2cc(C)ccc2C)c1N the screen gave TPP: no hit; PreQ1: no hit; SAM-II: no hit. For CCN(CC)S(=O)(=O)c1ccc(-c2nc(C#N)c(NC3CC3)o2)cc1 the calls were TPP: no hit; PreQ1: no hit. With O=C(O)C(Cc1ccccc1N(CCO)CCO)N1C(=O)c2ccccc2C1=O (stereo unspecified) the screen gave TPP: no hit; PreQ1: no hit; SAM-II: no hit. Calls for CN(C)c1cccc(-c2ccc(CO)cc2CO)c1 are TPP: no hit; PreQ1: no hit; SAM-II: no hit.

For COc1cc(NC(c2ccc(Cl)cc2)c2nnc(-c3ccccc3)o2)cc(OC)c1 (stereo unspecified) the calls were TPP: no hit; PreQ1: no hit; SAM-II: no hit. With COc1cccc(CN2CCCC3(CCNC3)C2=O)c1 (stereo unspecified) the screen gave TPP: no hit; PreQ1: no hit; SAM-II: no hit. For Cc1cnn(CC2CCN(C(=O)CC3COCCN3)CC2)c1 (stereo unspecified) the calls were TPP: no hit; PreQ1: no hit; SAM-II: no hit. With COc1cc(Cl)c(C)cc1NC(=O)N1CCN(CC2CC2)C(CCO)C1 (stereo unspecified) the screen gave TPP: no hit; PreQ1: no hit; SAM-II: no hit. With O=C1c2ccccc2C(=O)C1(Nc1ccccc1)c1ccccc1 the screen gave TPP: no hit; PreQ1: no hit; SAM-II: no hit.

Calls for CN(CCO)C[C@@H]1CN(c2noc(-c3ccccc3)n2)C[C@@H]1CO are TPP: no hit; PreQ1: no hit; SAM-II: no hit. O=C(O)c1cc2ccccc2cc1Nc1ccccc1 was scored TPP: no hit; PreQ1: no hit; SAM-II: no hit. With Nc1c(-c2nc(-c3ccncc3)no2)nnn1-c1ccc(C(F)(F)F)c(Cl)c1 the screen gave TPP: no hit; PreQ1: no hit. Fc1ccc(CNCCC(Cc2ccccc2)c2ccco2)cc1 (stereo unspecified) was scored TPP: no hit; PreQ1: no hit; SAM-II: no hit.

4 of the entries, repeated:

structure	TPP	PreQ1	SAM-II
OCC1COCCN(Cc2c(F)cccc2Cl)C1 (stereo unspecified)	no hit	no hit	no hit
Nc1c(-c2nc(-c3ccncc3)no2)nnn1-c1ccc(C(F)(F)F)c(Cl)c1	no hit	no hit	-
CN(CCO)C[C@@H]1CN(c2noc(-c3ccccc3)n2)C[C@@H]1CO	no hit	no hit	no hit
Cc1ccc(Nc2cc(C)nc3nc(-c4ccccc4)nn23)c(C)c1	no hit	no hit	no hit